Laboratory results from paper PMC9403797, “Back From the Dead: The Atypical Kinase Activity of a Pseudokinase Regulator of Cation Fluxes During Inducible Immunity” (Frontiers in Plant Science, 2022).

Assays:
Experiment in all cases: peptide or protein array; functional protein microarrays (AtPMA-5000 and AtPMA-10000, about 15,000 Arabidopsis proteins) probed with 150 ul purified ILK1-V5 in solution for 1.5 h with 1% BSA, 5 mM MgCl2 and MnCl2; detected with Cy5-conjugated anti-V5 antibody; three probe arrays against two control arrays without probe; one-sided t-test, 5% significance, FDR; both purified
[1] = biological target: KUP5 potassium transporter (Arabidopsis)
[2] = biological target: HAK5 potassium transporter (Arabidopsis)
[3] = biological target: MEKK19 (Arabidopsis)

B1: ILK1-V5 (integrin-linked kinase 1, Arabidopsis) (enzyme, UniProt F4IS56 1-479, looked up)
chain: MENITAQLKRGISRQFSTGSIRRTLSRQFTRQSSLDPRRTNMRFSFGRQSSLDPIRRSPDSSKSDDEPHMSVPENLDSTMQLLFMASKGDVRGIEELLDEGIDVNSIDLDGRTALHIAACEGHLGVVKALLSRRANIDARDRWGSTAAADAKYYGNLDVYNLLKARGAKVPKTRKTPMTVSNPREVPEYELNPLEVQVRKSDGISKGAYQVAKWNGTRVSVKILDKDSYSDPERINAFRHELTLLEKVRHPNVIQFVGAVTQNIPMMIVVEYNPKGDLSVYLQKKGRLSPSKALRFALDIARGMNYLHECKPDPIIHCDLKPKNILLDRGGQLKISGFGMIRLSKISQDKAKVANHKAHIDLSNYYIAPEVYKDEIFDLRVDAHSFGVILYEITEGVPVFHPRPPEEVARMMCLEGKRPVFKTKSRSYPPDIKELIEKCWHPEAGIRPTFSEIIIRLDKIVANCSKQGWWKDTFKFPWK
notes: ILK1, integrin-linked kinase 1, a pseudokinase of the Raf-like MAP3K family, Arabidopsis; also called purified ILK1-V5 protein; source: purified as described previously (Brauer et al., 2014, 2016); purity validated by mass spectrometry
B1 was tested, and the binding [1] was “binds”, the binding [2] was “no binding” and the binding [3] was “binds”.

Results are given in words; binding and its absence hold for the method and conditions named. For part of these data: Binding can be weak; no strength is given. Sequences can lack the tags named with a protein.
